PubChem BioAssay AID1259308 – NCATS – 2017

Assay: 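Knock-downs that increase output of a recombinant reporter protein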 (primary screen)
Cells: human HEK293 embryonic kidney cells stably expressing firefly luciferase (HEK-CMV-Luc2-Hygro)
Knock-down reagent: single siRNA against human genes, 0.8 pmol siRNA per well
Duration: 72 h
Measurement: 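Luciferase light (ONE-Glo) measured on one replicate plate set and viability (CellTiter-Glo) on the other, scaled to a negative control siRNA, with robust z-scores and luciferase per cell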
Scale: total luciferase, z-score and total luciferase, % of control: higher = more reporter protein produced; luciferase per cell, z-score: higher = more reporter output per viable cell; viable cells, % of control: higher = more viable cells
Active means: 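Active when the median/MAD z-score for overall luciferase is greater than 3; a gene was taken forward for validation with new siRNAs if at least two of its three siRNAs passed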
Meaning of the calls: active = raised luciferase; inactive = no rise
Shown is a random part of about 59,000 reagents. About 1,510 of them (2.6%) were called active. 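Calls use total luciferase alone and ignore viability, so some active siRNAs may act by altering cell number.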 A number with no mark means an inactive call.

| Gene | PubChem SID | total luciferase, z-score | total luciferase, % of control | luciferase per cell, z-score | viable cells, % of control |
| --- | --- | --- | --- | --- | --- |
| KCND1 | SID160776143 | -0.276 | 76.4 | -0.573 | 99.3 |
| KCND1 | SID160776144 | -0.961 | 62.8 | -1.4 | 102 |
| KCND1 | SID160776145 | 0.0892 | 83.7 | -0.0894 | 95.7 |
| CHRD | SID160720500 | -0.276 | 76.4 | 0.514 | 74.6 |
| CHRD | SID160720501 | -0.523 | 71.5 | 0.129 | 77.2 |
| CHRD | SID160720502 | -0.884 | 64.3 | -0.505 | 82.1 |
| H2BC14 | SID160719879 | 0.205 | 86 | -0.103 | 98.7 |
| H2BC14 | SID160724147 | -1.02 | 61.6 | -0.701 | 82.8 |
| H2BC14 | SID160735028 | 1.35 | 109 | 2.09 | 70 |
| RAP1GAP | SID160715652 | -0.885 | 64.3 | -0.886 | 90.7 |
| RAP1GAP | SID160715653 | 2.83 | 138 | 2.33 | 83.5 |
| RAP1GAP | SID160715654 | 1.88 | 119 | 0.775 | 109 |
| OR4A15 | SID160750716 | 1.5 | 112 | 1.27 | 89.3 |
| OR4A15 | SID160750717 | -0.496 | 72 | 0.47 | 71.1 |
| OR4A15 | SID160750718 | -0.647 | 69 | -1.38 | 111 |
| PI4K2A | SID160743638 | 1.52 | 112 | 2.4 | 66.7 |
| PI4K2A | SID160743639 | 0.373 | 89.3 | 0.408 | 89.6 |
| PI4K2A | SID160743640 | 0.112 | 84.1 | 0.521 | 82 |
| ARHGAP36 | SID160759681 | -0.395 | 74 | -0.71 | 99.7 |
| ARHGAP36 | SID160759682 | -1.48 | 52.5 | -1.12 | 78.7 |
| ARHGAP36 | SID160759684 | 0.281 | 87.5 | 0.373 | 88.6 |
| PUS1 | SID160731948 | -1.37 | 54.6 | -1.4 | 88.1 |
| PUS1 | SID160750389 | 1.15 | 105 | 1.07 | 88.4 |
| PUS1 | SID160750390 | 0.747 | 96.7 | 1.23 | 78.3 |
| GRPR | SID160774618 | 0.507 | 92 | -0.0319 | 104 |
| GRPR | SID160774619 | -0.269 | 76.5 | -0.303 | 92.6 |
| GRPR | SID160774620 | -1.62 | 49.7 | -1.76 | 88.3 |
| OR7E85BP | SID160770498 | 0.957 | 101 | 0.74 | 92.8 |
| OR7E85BP | SID160770499 | 1.4 | 110 | 2.05 | 71.4 |
| OR7E85BP | SID160770500 | 0.627 | 94.4 | 0.909 | 83 |
| UEVLD | SID160743462 | 0.234 | 86.5 | -0.0547 | 98.1 |
| UEVLD | SID160743463 | -2 | 42.2 | -1.15 | 63.8 |
| UEVLD | SID160743464 | 0.541 | 92.6 | 0.924 | 81.2 |
| POTEA | SID160733094 | -1.93 | 43.5 | -1.82 | 78.6 |
| POTEA | SID160764424 | 1.06 | 103 | 1 | 88.4 |
| POTEA | SID160764425 | -0.242 | 77.1 | -0.207 | 90.9 |
| GATAD1 | SID160746717 | -0.512 | 71.7 | 0.147 | 77.1 |
| GATAD1 | SID160746718 | 0.921 | 100 | 0.818 | 90.3 |
| GATAD1 | SID160746719 | -1 | 62 | -1.48 | 102 |
| FKBP6 | SID160720108 | -0.79 | 66.2 | -1.25 | 103 |
| FKBP6 | SID160720109 | 0.71 | 96 | 0.591 | 91.8 |
| FKBP6 | SID160732032 | -0.586 | 70.2 | -0.322 | 85.4 |
| CFAP20DC | SID160760890 | -0.00644 | 81.8 | 0.51 | 79.9 |
| CFAP20DC | SID160760891 | -0.0926 | 80 | -0.0491 | 90.6 |
| CFAP20DC | SID160760892 | 1.29 | 108 | 1.08 | 90.4 |
| NAPA | SID160720774 | 0.455 | 90.9 | 3.26 | 43 |
| NAPA | SID160720775 | 0.53 | 92.4 | 1.2 | 75.4 |
| NAPA | SID160720776 | -0.354 | 74.8 | 0.977 | 64.7 |
| LRCH3 | SID160752792 | 0.876 | 99.3 | 0.514 | 96.9 |
| LRCH3 | SID160752793 | -0.116 | 79.6 | -0.515 | 102 |
| LRCH3 | SID160752794 | -0.602 | 69.9 | -0.98 | 101 |
| OR5AK2 | SID160766428 | 1.78 | 117 | 1.18 | 96.1 |
| OR5AK2 | SID160766429 | -0.253 | 76.9 | -0.3 | 93 |
| OR5AK2 | SID160766430 | -0.662 | 68.7 | -0.0247 | 77.3 |
| STAP2 | SID160743917 | -0.199 | 77.9 | -0.32 | 94.7 |
| STAP2 | SID160743918 | 0.213 | 86.1 | 0.0702 | 94.5 |
| STAP2 | SID160743919 | 0.377 | 89.4 | 0.446 | 88.8 |
| HSFY1P1 | SID160738807 | -0.375 | 74.4 | -0.35 | 91.2 |
| HSFY1P1 | SID160738808 | 1.73 | 116 | 1.33 | 91.5 |
| HSFY1P1 | SID160738809 | -0.667 | 68.6 | -0.473 | 86.9 |
| QARS1 | SID160715512 | 1.89 | 120 | 1.19 | 97.7 |
| QARS1 | SID160715513 | -0.371 | 74.5 | -0.623 | 98.1 |
| QARS1 | SID160715514 | 1.8 | 118 | 0.781 | 107 |
| GEMIN7 | SID160749380 | 2.4 | 130 | 1.61 | 94.8 |
| GEMIN7 | SID160749381 | 0.109 | 84.1 | 0.569 | 80.9 |
| GEMIN7 | SID160749382 | 2.85 | 139 | 3.16 | 67.3 |
| SERPINB8 | SID160714289 | -0.492 | 72.1 | -0.411 | 89.8 |
| SERPINB8 | SID160714290 | 2.55 | 133 | 2.09 | 85.5 |
| SERPINB8 | SID160714291 | 0.155 | 85 | -0.645 | 113 |
| SLC35E1 | SID160749816 | -1.07 | 60.5 | -1.33 | 96 |
| SLC35E1 | SID160749817 | 0.224 | 86.3 | 0.028 | 95.8 |
| SLC35E1 | SID160749818 | 1.89 | 119 | 1.27 | 95.6 |
| NMRAL1 | SID160733667 | 0.12 | 84.3 | -0.269 | 101 |
| NMRAL1 | SID160745944 | -0.0376 | 81.1 | 0.598 | 77.5 |
| NMRAL1 | SID160745945 | 2.28 | 127 | 2.11 | 81.6 |
